Results are given in words; binding and its absence hold for the method and conditions named. Some binding calls cover weakened binding; strength is not graded here. Sequences can lack the tags named with a protein.
Columns and labels:
[1] = target: T1, his-tagged human CDH6 extracellular region protein (hCDH6 ECD-his) (human) (UniProt P55285); test: SPR Biacore
T1 sequence: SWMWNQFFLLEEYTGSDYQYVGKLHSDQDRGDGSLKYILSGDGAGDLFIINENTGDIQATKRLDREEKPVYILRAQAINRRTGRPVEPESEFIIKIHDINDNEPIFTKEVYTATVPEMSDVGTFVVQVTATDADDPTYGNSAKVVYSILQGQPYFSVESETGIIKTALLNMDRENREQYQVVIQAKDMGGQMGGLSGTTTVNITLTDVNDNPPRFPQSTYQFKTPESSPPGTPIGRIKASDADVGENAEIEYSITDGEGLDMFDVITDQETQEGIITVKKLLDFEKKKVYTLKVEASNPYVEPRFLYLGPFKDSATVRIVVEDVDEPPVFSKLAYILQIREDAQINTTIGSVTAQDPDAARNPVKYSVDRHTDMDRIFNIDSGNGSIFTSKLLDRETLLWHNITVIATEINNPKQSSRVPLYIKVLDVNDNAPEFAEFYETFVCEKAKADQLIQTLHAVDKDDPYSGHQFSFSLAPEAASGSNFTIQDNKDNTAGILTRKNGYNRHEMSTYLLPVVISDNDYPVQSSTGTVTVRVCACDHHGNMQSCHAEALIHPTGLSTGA

[2] = target: T1, his-tagged human CDH6 extracellular region protein (hCDH6 ECD-his) (human); test: ELISA, antigen coated

- binding [1]: binds
- binding [2]: binds
B1: hCDH6-6-H2L2 (antibody, human IgG1, kappa, V domains shown)
VH: EVQLVQSGAEVKKPGASVKVSCKASGYTFTDYYMAWVRQAPGQGLEWMGYIFPNSGGTDYSQKFKGRVTLTVDKSTSTVYMELSSLRSEDTAVYYCARELGADYGDYYAMDHWGQGTTVTVSS
VL: DIQMTQSPSSLSASVGDRVTITCRASENIDSYLAWYQQKPGKSPKLLVYSATLLADGVPSRFSGSGSGTDYTLTISSLQPEDFATYYCQHYYRTPPTFGQGTKLEIKR

Reference: EP4663661A1 (Hainan Simcere Zaiming Pharmaceutical Co., Ltd., dated 2025)
